Laboratory results taken from paper PMC3184947.
These are yes or no findings as the source states them, for the method shown. Binding seen in cells or lysates may run through a third protein. Here binding means that the protein was enriched with, or labelled near, the bait; the list need not be complete. For some assays here: Tags and fused reporters may be left off the sequences shown. Values belong to the molecule of their own block, whether it stands above or below them.

Tests used:
[1] = target: T1, Cdc11-GFP (S. cerevisiae) (UniProt P32458); assay: affinity purification with mass spectrometry; Cdc11-GFP immunopurified from the esa1-L254P strain background at 37°C, co-purified proteins found by mass spectrometry
T1 sequence: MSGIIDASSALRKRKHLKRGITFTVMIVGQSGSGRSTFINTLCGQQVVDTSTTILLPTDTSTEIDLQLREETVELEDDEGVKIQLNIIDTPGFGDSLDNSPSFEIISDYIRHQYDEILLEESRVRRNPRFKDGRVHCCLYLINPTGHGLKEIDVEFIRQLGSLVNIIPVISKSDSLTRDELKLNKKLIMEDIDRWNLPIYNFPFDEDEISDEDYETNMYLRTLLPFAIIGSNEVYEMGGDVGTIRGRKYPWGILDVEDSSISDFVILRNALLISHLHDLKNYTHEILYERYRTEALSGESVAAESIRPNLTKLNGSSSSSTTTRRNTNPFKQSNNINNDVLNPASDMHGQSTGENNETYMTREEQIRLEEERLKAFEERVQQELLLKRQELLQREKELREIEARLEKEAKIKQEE

[2] = target: T2, Cdc11-TAP (S. cerevisiae), P32458; assay: affinity purification with mass spectrometry; single step purification of TAP-tagged septins (Cdc11-TAP or Shs1-TAP) on IgG magnetic beads from 40 mg yeast whole cell extract, 300 mM sodium acetate, 4°C; half of each sample treated with NuA4 and acetyl coenzyme A; bands cut from silver stained SDS-PAGE gel, trypsin, LC-MS/MS; conditions: remark: other sources report otherwise
T2 chain: T1 sequence

[3] = target: T3, Shs1-TAP (S. cerevisiae), Q07657; assay: as above; conditions: remark: other sources report otherwise
T3 chain: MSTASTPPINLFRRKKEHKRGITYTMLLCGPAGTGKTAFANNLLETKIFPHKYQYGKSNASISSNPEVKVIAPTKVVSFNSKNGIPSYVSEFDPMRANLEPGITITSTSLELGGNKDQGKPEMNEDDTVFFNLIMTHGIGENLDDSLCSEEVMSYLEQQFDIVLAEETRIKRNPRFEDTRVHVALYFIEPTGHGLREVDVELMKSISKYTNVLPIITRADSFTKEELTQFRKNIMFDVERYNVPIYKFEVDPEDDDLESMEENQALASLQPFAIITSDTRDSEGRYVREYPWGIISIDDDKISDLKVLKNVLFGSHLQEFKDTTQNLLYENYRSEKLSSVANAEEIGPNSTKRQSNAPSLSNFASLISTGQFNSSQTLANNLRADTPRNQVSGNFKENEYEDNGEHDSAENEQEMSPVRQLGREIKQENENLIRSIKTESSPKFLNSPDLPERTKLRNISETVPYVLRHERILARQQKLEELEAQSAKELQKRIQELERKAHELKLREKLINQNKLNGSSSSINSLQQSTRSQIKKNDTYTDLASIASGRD

[4] = target: T4, Shs1-TAP (S. cerevisiae) (UniProt Q07657); assay: as above
T4 sequence: T3 chain

[5] = target: T5, Cdc11-TAP (S. cerevisiae) (UniProt P32458); assay: as above
T5 sequence: T1 sequence

Molecule: Act1 (from UniProt P60010 1-375)
- binding [1]: binds

B3: Cdc12 (protein, UniProt P32468 1-407)
chain: MSAATATAAPVPPPVGISNLPNQRYKIVNEEGGTFTVMLCGESGLGKTTFINTLFQTVLKRADGQQHRQEPIRKTVEIDITRALLEEKHFELRVNVIDTPGFGDNVNNNKAWQPLVDFIDDQHDSYMRQEQQPYRTKKFDLRVHAVLYFIRPTGHGLKPIDIETMKRLSTRANLIPVIAKADTLTAQELQQFKSRIRQVIEAQEIRIFTPPLDADSKEDAKSGSNPDSAAVEHARQLIEAMPFAIVGSEKKFDNGQGTQVVARKYPWGLVEIENDSHCDFRKLRALLLRTYLLDLISTTQEMHYETYRRLRLEGHENTGEGNEDFTLPAIAPARKLSHNPRYKEEENALKKYFTDQVKAEEQRFRQWEQNIVNERIRLNGDLEEIQGKVKKLEEQVKSLQVKKSHLK
- binding [4]: binds

B4: Cdc3 (protein, UniProt P32457 1-520)
chain: MSLKEEQVSIKQDPEQEERQHDQFNDVQIKQESQDHDGVDSQYTNGTQNDDSERFEAAESDVKVEPGLGMGITSSQSEKGQVLPDQPEIKFIRRQINGYVGFANLPKQWHRRSIKNGFSFNLLCVGPDGIGKTTLMKTLFNNDDIEANLVKDYEEELANDQEEEEGQGEGHENQSQEQRHKVKIKSYESVIEENGVKLNLNVIDTEGFGDFLNNDQKSWDPIIKEIDSRFDQYLDAENKINRHSINDKRIHACLYFIEPTGHYLKPLDLKFMQSVYEKCNLIPVIAKSDILTDEEILSFKKTIMNQLIQSNIELFKPPIYSNDDAENSHLSERLFSSLPYAVIGSNDIVENYSGNQVRGRSYPWGVIEVDNDNHSDFNLLKNLLIKQFMEELKERTSKILYENYRSSKLAKLGIKQDNSVFKEFDPISKQQEEKTLHEAKLAKLEIEMKTVFQQKVSEKEKKLQKSETELFARHKEMKEKLTKQLKALEDKKKQLELSINSASPNVNHSPVPTKKKGFLR
- binding [5]: binds
- binding [4]: binds

Now from value to molecule:

- binding [2]: binds
- binding [3]: binds
B1: Cdc10, P25342 1-322 (protein)
chain: MDPLSSVQPASYVGFDTITNQIEHRLLKKGFQFNIMVVGQSGLGKSTLINTLFASHLIDSATGDDISALPVTKTTEMKISTHTLVEDRVRLNINVIDTPGFGDFIDNSKAWEPIVKYIKEQHSQYLRKELTAQRERFITDTRVHAILYFLQPNGKELSRLDVEALKRLTEIANVIPVIGKSDTLTLDERTEFRELIQNEFEKYNFKIYPYDSEELTDEELELNRSVRSIIPFAVVGSENEIEINGETFRGRKTRWSAINVEDINQCDFVYLREFLIRTHLQDLIETTSYIHYEGFRARQLIALKENANSRSSAHMSSNAIQR

- binding [1]: binds
B2: Crn1 (protein, UniProt Q06440 1-651)
chain: MSGKFVRASKYRHVFGQAAKKELQYEKLKVTNNAWDSNLLKTNGKFIAVNWNASGGGAFAVIPIEEVGKAPDQVPLFRGHTAQVLDTDFDPFNDHRIASGSDDSKIGIWDIPENYKFHDHVDEDGEPIDIKPVKFLTGHARKVGHVLYHPVAENVLASSSGDYTVKLWNVETGKDMITLKHPDMVTSMSFSYDGNYLATVARDKKLRVWNIREEKIVSEGPAHTGAKNQRVVWLGNSDRLATTGFSKLSDRQIGIWDAFNIEKGDLGGFYTVDQSSGILMPFYDEGNKILYLVGKGDGNIRYYEFQNDELFELSEFQSTEAQRGFAVAPKRMVNVKENEVLKGFKTVVDQRIEPVSFFVPRRSEEFQEDIYPDAPSNKPALTAEEWFSGKSVEGPILVSMRSIYDGSAPSFHEAKRPQQPTTQETALEEKKEQPKVEKPISESEKEVKQEAPKSPSPLKSASSSSTINHVLKEDNSINKLLKKSSDIDQVNNAEDPSRDTSGWEEADDEPAPIKIETPVTPTETKKDRTPKVEPSKELKPEPVSIATDRKQEQSLPQEEKSSEKTKSPEQEKSATPPSSITAAKTAITASSKEEPSAARTSPKSLGLKKSVEKLSTLVLQLEDVVDKLTKANLDKDERLLKLEQKIGELSK

- binding [1]: binds
B5: Abp1 (protein, UniProt P15891 1-592)
chain: MALEPIDYTTHSREIDAEYLKIVRGSDPDTTWLIISPNAKKEYEPESTGSSFHDFLQLFDETKVQYGLARVSPPGSDVEKIIIIGWCPDSAPLKTRASFAANFAAVANNLFKGYHVQVTARDEDDLDENELLMKISNAAGARYSIQTSSKQQGKASTPPVKKSFTPSKSPAPVSKKEPVKTPSPAPAAKISSRVNDNNDDDDWNEPELKERDFDQAPLKPNQSSYKPIGKIDLQKVIAEEKAKEDPRLVQKPTAAGSKIDPSSDIANLKNESKLKRDSEFNSFLGTTKPPSMTESSLKNDDDKVIKGFRNEKSPAQLWAERKAKQNSGNAETKAEAPKPEVPEDEPEGEPDVKDLKSKFEGLAASEKEEEEMENKFAPPPKKSEPTIISPKPFSKPQEPVKAEEAEQPKTDYKKIGNPLPGMHIEADNEEEPEENDDDWDDDEDEAAQPPLPSRNVASGAPVQKEEPEQEEIAPSLPSRNSIPAPKQEEAPEQAPEEEIEEEAEEAAPQLPSRSSAAPPPPPRRATPEKKPKENPWATAEYDYDAAEDNELTFVENDKIINIEFVDDDWWLGELEKDGSKGLFPSNYVSLGN
